Record: PubChem BioAssay AID504764 (Drosophila RNAi Screening Center, 2011)

Purpose: 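Genes whose knock-down alters Notch-dependent transcription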 (primary screen)
Cell system: Drosophila Kc167 cells
Reagent: long dsRNA against Drosophila genes
Duration: about 5 days (4 days dsRNA, then 24 h after transfection)
Challenge: transfection of constitutively active membrane-tethered Notch lacking the extracellular domain, read 24 h later
Measured: 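Firefly luciferase from an E(spl)m3 reporter with active Notch, plus control-promoter and uninduced reporter wells for normalisation; unnormalised counts, duplicate wells a and b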
Reading the numbers: induced reporter light, run 1, well a and induced reporter light, run 1, well b: higher = more light from the Notch target reporter with active Notch; control promoter light, run 1, well a and control promoter light, run 1, well b: higher = more light from the viral control promoter (cell number, transfection, viability); uninduced reporter light, run 1, well a: higher = more light from the Notch target reporter without active Notch
Rule for the call: 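Wells with low control signal or poorly matching duplicates excluded; duplicates averaged; per source plate, z beyond ±2 for induced/control log2 ratio or beyond ±1.8 for induced/uninduced marks a hit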
Meaning of the calls: active = modifier hit (raised or lowered Notch signal); inactive = not a hit
In all, the deposit lists about 22,000 reagents; below is an unselected part of those with a known target gene and a result. Of all reagents, 403 (1.9%) got an active call. 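Unnormalised raw counts per well; ratio z-scores behind the hit calls and whether each hit raises or lowers signal are not deposited.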 Not stated in the record: the amount of reagent.

| target gene | amplicon | induced reporter light, run 1, well a | induced reporter light, run 1, well b | control promoter light, run 1, well a | control promoter light, run 1, well b | uninduced reporter light, run 1, well a | outcome |
| --- | --- | --- | --- | --- | --- | --- | --- |
| CG15753 (retired record) | DRSC19718 | 4140 | 3785 | 7470 | 7330 | 1790 | inactive |
| m | DRSC20181 | 98255 | 85685 | 1.16e5 | 1.04e5 | 6765 | inactive |
| cd | DRSC16157 | 1.98e5 | 1.86e5 | 1.57e5 | 1.55e5 | 12195 | inactive |
| beat-Ic | DRSC01524 | 78550 | 60945 | 70725 | 74610 | 7935 | inactive |
| beat-Ic | DRSC03491 | 43385 | 46715 | 28790 | 28440 | 5585 | inactive |
| Pkc53E | DRSC05636 | 83605 | 99035 | 95025 | 83685 | 6265 | inactive |
| Pkc53E | DRSC07510 | 1.17e5 | 1.06e5 | 2.16e5 | 2.38e5 | 9200 | inactive |
| CG34033 | DRSC05190 | 81465 | 1.00e5 | 1.06e5 | 1.15e5 | 5800 | inactive |
| RapGAP1 | DRSC02293 | 1.82e5 | 1.76e5 | 2.39e5 | 2.23e5 | 10880 | inactive |
| RapGAP1 | DRSC02294 | 1.42e5 | 1.56e5 | 2.13e5 | 1.69e5 | 10970 | inactive |
| RapGAP1 | DRSC03406 | 1.84e5 | 1.70e5 | 1.76e5 | 1.82e5 | 18175 | inactive |
| CG5111 | DRSC15717 | 1.19e5 | 1.29e5 | 1.56e5 | 1.68e5 | 10370 | inactive |
| TwdlQ | DRSC14745 | 33595 | 20890 | 26075 | 22392 | 5875 | inactive |
| CG9776 | DRSC12127 | 83575 | 1.24e5 | 49585 | 52185 | 7760 | inactive |
| Setd3 | DRSC17840 | 1.48e5 | 1.62e5 | 2.74e5 | 2.85e5 | 10670 | inactive |
| Setd3 | DRSC18269 | 1.61e5 | 1.69e5 | 2.52e5 | 2.22e5 | 11705 | inactive |
| CG9919 | DRSC20219 | 1.24e5 | 1.51e5 | 1.38e5 | 1.24e5 | 12305 | inactive |
| Eig71Eh | DRSC11155 | 74080 | 71565 | 71575 | 71865 | 4150 | inactive |
| Ube3a | DRSC10600 | 1.09e5 | 87070 | 62020 | 24280 | 6770 | inactive |
| CG34370 | DRSC03913 | 84135 | 67255 | 1.08e5 | 74750 | 6925 | inactive |
| CG34370 | DRSC04142 | 41910 | 37970 | 35900 | 46730 | 2195 | inactive |
| CG34370 | DRSC04143 | 37355 | 34480 | 34350 | 30175 | 1875 | inactive |
| CG34370 | DRSC04144 | 36355 | 35770 | 44750 | 30265 | 2860 | inactive |
